The text below walks through data of paper PMC3913574.

This assay concerns the target T1, CADM1 (Cell adhesion molecule 1), endogenous in Caco-2 cells (human (endogenous in Caco-2)) (UniProt Q9BY67).
T1 sequence: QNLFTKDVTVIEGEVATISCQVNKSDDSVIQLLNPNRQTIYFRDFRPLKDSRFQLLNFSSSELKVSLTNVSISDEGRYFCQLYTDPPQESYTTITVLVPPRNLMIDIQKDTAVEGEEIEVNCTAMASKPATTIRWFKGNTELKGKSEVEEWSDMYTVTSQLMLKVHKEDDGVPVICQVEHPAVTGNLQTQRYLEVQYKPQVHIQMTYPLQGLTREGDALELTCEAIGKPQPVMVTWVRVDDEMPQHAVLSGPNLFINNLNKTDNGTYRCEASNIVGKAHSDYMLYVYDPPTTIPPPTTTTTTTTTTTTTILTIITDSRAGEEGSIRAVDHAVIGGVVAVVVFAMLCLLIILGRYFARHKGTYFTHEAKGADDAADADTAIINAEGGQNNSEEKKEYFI
The assay can be described thus: co-IP; lysates of Caco-2 cells transiently expressing MPP3-HA, immunoprecipitated with anti-CADM1 or anti-Dlg antibodies (control rabbit IgG); Western blotting with antibodies against HA, Dlg, p85 and CADM1.

No constants are given. Whether binding was seen depends on the method and setting. In cells and extracts the contact can be indirect. Some entries that bind do so weakly or less than the wild type. Sequences can lack the tags named with a protein.

B1: MPP3-HA (protein, UniProt Q13368 1-585)
chain: MPVLSEDSGLHETLALLTSQLRPDSNHKEEMGFLRDVFSEKSLSYLMKIHEKLRYYERQSPTPVLHSAVALAEDVMEELQAASVHSDERELLQLLSTPHLRAVLMVHDTVAQKNFDPVLPPLPDNIDEDFDEESVKIVRLVKNKEPLGATIRRDEHSGAVVVARIMRGGAADRSGLVHVGDELREVNGIAVLHKRPDEISQILAQSQGSITLKIIPATQEEDRLKESKVFMRALFHYNPREDRAIPCQEAGLPFQRRQVLEVVSQDDPTWWQAKRVGDTNLRAGLIPSKGFQERRLSYRRAAGTLPSPQSLRKPPYDQPCDKETCDCEGYLKGHYVAGLRRSFRLGCRERLGGSQEGKMSSGAESPELLTYEEVARYQHQPGERPRLVVLIGSLGARLHELKQKVVAENPQHFGVAVPHTTRPRKSHEKEGVEYHFVSKQAFEADLHHNKFLEHGEYKENLYGTSLEAIQAVMAKNKVCLVDVEPEALKQLRTSEFKPYIIFVKPAIQEKRKTPPMSPACEDTAAPFDEQQQEMAASAAFIDRHYGHLVDAVLVKEDLQGAYSQLKVVLEKLSKDTHWVPVSWVR
Take B1: the binding entry is listed as “binds”.
